The nature of this assay: qHTS Assay for Lipid Storage Modulators in Drosophila S3 Cells.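 As to cell number change: cells counted by Cell Tracker Red CMTPX staining in the red channel.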 Conditions: BODIPY lipid droplet fluorescence, 18-24 h; for cell number change: measured here: cell count max response, cells fed with added oleic acid. Summed up:
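Laser-scanning cytometry quantifies lipid droplet accumulation (500–530 nm total intensity; droplet/cell object ratio) in oleic acid-fed (400 uM added) Drosophila S3 cells treated with a concentration series. 20 uM Triacsin C defined 100% inhibition.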

The mark [1] stands for this setting: measured here: lipid fluorescence (Fed channel) AC50, cells fed with added oleic acid.
The mark [2] stands for this setting: measured here: cell number channel AC50, cells fed with added oleic acid.

The other results are listed elsewhere or left out. The main result of the screen is listed elsewhere. These columns were measured beside it and carry no call. Compounds called inactive in the main read-out are mostly missing here. Words in brackets tell the shape of the fitted curve; partial curves, single points and poor fits give uncertain potencies.

Take `Cc1c(C(=O)Nc2ccc(Cl)cc2)c2ccccn2c1C(=O)c1ccc(F)cc1`: the cell number change is -2.08%. Also, the AC50 under setting [1] is 0.517 µM [rising, single point].

In the case of `Cc1cccc2cc(C#N)c(N3CCC(O)CC3)nc12`, the cell number change turned out to be 16.2%. Also, the AC50 under setting [2] was 6.51 µM [rising, single point].

On to `Cc1ccc(NC(=O)COC(=O)C2(c3ccc(Cl)cc3)CCCC2)cc1`, for which the cell number change was -20.9%. Moreover, under setting [1], the AC50 is 2.91 µM [falling, partial curve].

Take `Cc1cccc(NC(=S)NNc2cccc(Cl)c2)c1`: the cell number change was -13.3%. Further, the half-maximal activity concentration (AC50) under setting [1] was 29.1 µM [falling, partial curve, poor fit]. As for `COc1ccccc1C(=O)NC(CCSC)C(=O)N1CCN(C(C)=O)CC1` (stereo unspecified), the cell number change stood at 1.56%. `O=C(CN1CCCCCC1)Nc1ccccc1F`: the cell number change is -16.2%. `Cc1ccc(NC(=O)CN2CCc3cc4c(cc3C2)OCCCO4)cc1C`: the cell number change was -32.2%. The AC50 under setting [2] was 0.0058 µM [falling, full curve, poor fit]. On to `O=C1C=CN(C(=O)Oc2ccccc2)CC1`, for which the cell number change is -1.23%. In addition, the AC50 under setting [1] was 0.731 µM [rising, full curve]. With `CCOC(=O)c1ccc(NC(=O)Cn2nnc(-c3ccccc3C)n2)cc1`, the cell number change is -4.94%. Turning to `CC(C)(CO)NCc1cc(Br)ccc1OCc1ccccc1`, the cell number change is -11.3%. Under setting [1], the AC50 is 29.1 µM [falling, single point]. Take `CC1CCCCN1C(=O)c1c(Cl)cnn1C` (stereo unspecified): the cell number change is -16.1%. Moreover, the AC50 under setting [1] was 0.58 µM [rising, single point]. In the case of `Cc1ccc(OCC(=O)NCCCNC(=O)c2ccccn2)cc1C`, the cell number change was -8.75%. The AC50 under setting [1] is 9.2 µM [falling, single point].

Take `CSc1ccccc1-c1nnc(-c2ccc(Cl)cc2Cl)o1`: the cell number change is -29%. The AC50 under setting [2] was 1.64 µM [falling, single point].

On to `CC1(C(=O)NC(=S)N(CCC#N)Cc2cccnc2)CC1(Cl)Cl` (stereo unspecified), for which the cell number change came out at 63.7%. The AC50 under setting [2] is 29.1 µM [rising, single point]. For the molecule `Cc1[nH][nH]c(=O)c1C(c1ccc(-c2ccc(Cl)c(C(=O)O)c2)o1)c1c(C)[nH][nH]c1=O`, the cell number change was -23.6%. Further, the AC50 under setting [2] was 0.0326 µM [rising, full curve, poor fit]. With `CC(C)(C)c1ccc(NC(=O)Nc2ccc(F)cc2)cc1`, the cell number change was determined as 8.92%.

For the molecule `CC(C(=O)N(C)C1CCS(=O)(=O)C1)N1C(=O)/C(=C/c2ccco2)SC1=S` (stereo unspecified), the cell number change was -0.806%. Besides, the AC50 under setting [1] was 1.03 µM [falling, full curve]. `O=C(Cc1ccccc1)NC(NCCCN1CCOCC1)(C(F)(F)F)C(F)(F)F`: the cell number change worked out at 2.53%. Besides, the AC50 under setting [2] was 0.103 µM [rising, full curve]. The AC50 under setting [1] was 5.8 µM [falling, single point].

Turning to `CC1(C)CC(=O)C2=C(C1)N(Cc1ccc(F)cc1)C(=O)C2(NC(=O)c1cccnc1)C(F)(F)F` (stereo unspecified), the cell number change stood at 10.3%. Further, the AC50 under setting [1] is 6.51 µM [rising, single point]. For the molecule `CCCCNCC#CCOc1cc(C)ccc1C(C)C`, the cell number change is 22.9%.

For the molecule `CCCn1c(N)c(N2CCCCC2)c(=O)n(CC(=O)Nc2ccc(OC(F)(F)F)cc2)c1=O`, the cell number change was found to be 23.1%. Further, the AC50 under setting [1] is 6.51 µM [rising, partial curve, poor fit]. Turning to `CC(C)C(NC(=O)COc1ccccc1)C(=O)O` (stereo unspecified), the AC50 under setting [1] is 25.9 µM [falling, partial curve]. For the molecule `O=C(NCc1ccccc1)c1c(O)c2ccccc2[nH]c1=O`, the cell number change was 7.42%. For the same molecule, under setting [1], the concentration at half-maximal activity (AC50) was 6.51 µM [rising, single point]. In the case of `Cc1ccc(N2C(=S)NC3c4cc(Cl)ccc4OC2(C)C3C(=O)N(C)C)cc1` (stereo unspecified), under setting [1], the AC50 is 0.00411 µM [falling, full curve, poor fit]. With `COc1ccc(C(=O)OCC(=O)Nc2nc3c(F)c(F)c(F)cc3s2)cc1OC`, the AC50 under setting [1] is 6.51 µM [rising, single point]. In the case of `COc1ccccc1CCc1nnc(CCC(=O)NCC[C@@H]2C[C@@H]3C=C[C@H]2C3)o1`, the cell number change is -48.1%. Besides, the AC50 under setting [2] was 25.9 µM [falling, partial curve]. The AC50 under setting [1] was 20.6 µM [falling, partial curve]. `Cc1ccc(-c2nnn(Cc3nc(N)nc(N4CCOCC4)n3)n2)cc1`: the cell number change is -12.5%. As for `Cc1ccc(C2C(C#N)=C(N)OC3=C2C(=O)CC(C)(C)C3)s1` (stereo unspecified), the cell number change was -18.3%. The AC50 under setting [1] is 1.64 µM [falling, partial curve, poor fit].

On to `O=C(CSc1nc2ccccc2[nH]1)N=Nc1c(O)[nH]c2ccccc12`, for which the cell number change is -12.7%. Moreover, under setting [1], the AC50 was 18.4 µM [falling, single point]. With `COC(=O)c1ccc(OC(=O)c2ccco2)cc1`, the cell number change was determined as 4.65%. Further, the AC50 under setting [1] is 29.1 µM [falling, single point]. For `CCN(CC)CCCn1c(=S)[nH]c2cc(C(=O)OC)ccc2c1=O`, under setting [1], the AC50 is 4.11 µM [falling, partial curve]. For the molecule `COc1ccc2oc(C(=O)N3CCN(C(=O)c4ccco4)CC3)c(C)c2c1`, the cell number change is -13.2%. Further, the AC50 under setting [1] was 29.1 µM [falling, single point]. As to `O=S(=O)([O-])CCC[n+]1ccc(Oc2ccccc2)cc1`, the cell number change is 0.549%. Also, the AC50 under setting [2] is 0.00461 µM [falling, full curve, poor fit]. For the same molecule, under setting [1], the AC50 is 0.58 µM [rising, single point]. For the molecule `C=CCc1c(C)nc(SCc2ccccc2)[nH]c1=O`, the cell number change is -12.1%. For the molecule `Cc1csc(NC(=O)C2COc3ccccc3O2)n1` (stereo unspecified), the cell number change is 23.9%. In addition, under setting [1], the half-maximal activity concentration (AC50) is 0.58 µM [falling, single point].

For the molecule `CC(=O)N1CCN(S(=O)(=O)c2ccc(C)cc2)C1C` (stereo unspecified), the cell number change was -54.6%. For the same molecule, under setting [2], the AC50 is 20.6 µM [falling, single point]. Moreover, under setting [1], the AC50 was 20.6 µM [falling, single point]. On to `CCCCC(CC)CN=C(N)NC(N)=NCCCCCCN=C(N)NC(N)=NCC(CC)CCCC` (stereo unspecified), for which the cell number change was -83.1%. The AC50 under setting [2] was 7.31 µM [falling, partial curve]. Further, the concentration at half-maximal activity (AC50) under setting [1] is 6.51 µM [falling, full curve]. As to `Cc1cc(C(=O)O)cc(S(=O)(=O)NNC(=O)c2cccs2)c1C`, the cell number change was 49.6%. The concentration at half-maximal activity (AC50) under setting [2] was 29.1 µM [rising, single point]. For the same molecule, the concentration at half-maximal activity (AC50) under setting [1] was 0.58 µM [falling, single point]. For the molecule `CCN(CC)S(=O)(=O)c1cccc(C(=O)N[C@H](C(=O)NCc2ccc(Cl)cc2)C(C)C)c1`, the cell number change stood at 72.2%. The AC50 under setting [2] is 18.4 µM [rising, single point]. Also, the AC50 under setting [1] was 23.1 µM [rising, single point]. For `CC(C)C[C@H](NC(=O)c1nc[nH]c1C(=O)NC1CCNCC1)C(=O)OC(C)(C)C`, the half-maximal activity concentration (AC50) is, setting by setting: under setting [2], 6.51 µM [falling, single point]; under setting [1], 6.51 µM [falling, single point]. Regarding `CC1(C)CN(c2ccccc2)N(Cc2ccc(F)cc2)C1=O`, the cell number change was -12.1%. The AC50 under setting [1] was 10.3 µM [falling, partial curve]. As to `O=C(NNC1=Nc2cccc3cccc1c23)c1ccc(Br)cc1`, the cell number change is -6.07%. Moreover, the AC50 under setting [2] was 0.146 µM [falling, full curve, poor fit]. As to `CCOc1cnn(-c2ccccc2)c(=O)c1Cl`, the cell number change was -21%. The AC50 under setting [2] is 0.231 µM [falling, full curve, poor fit]. In addition, under setting [1], the AC50 is 3.26 µM [falling, single point]. In the case of `CC(C)OC(=O)c1cc(C(=O)c2cc(F)ccc2O)coc1=N`, the AC50 under setting [1] was 1.3 µM [falling, full curve]. For the molecule `CC1(C)CN=C(N2CCN(C3=NCC(C)(C)S3)CC2)S1`, the cell number change was determined as 3%.

Consider `CN(C)CCn1c(=O)n(Cc2ccccc2)c(=O)c2c3c(sc21)CCCCC3`, for which the cell number change came out at 16.2%. Take `CCOc1ccc2nc(NC(=O)CN3CCN(CC)CC3)sc2c1`: the cell number change is 0.824%. In the case of `Cc1ccc(-n2c3nc(=O)[nH]c(=O)c-3cc3c(C)nn(-c4ccccc4)c32)c(C)c1`, the cell number change worked out at 7.56%. As for `CCN(CC)C(=O)Cn1c(=O)n(CCCC(=O)NCc2ccc3c(c2)OCO3)c(=O)c2sccc21`, the cell number change was determined as 13.4%. Besides, the AC50 under setting [1] is 0.13 µM [falling, partial curve, poor fit]. `O=Cc1cn(-c2ccccc2)nc1-c1cc2ccccc2oc1=O`: the cell number change came out at 30.2%. Further, under setting [2], the AC50 was 9.2 µM [rising, partial curve, poor fit]. Turning to `O=C(/C=C/c1ccc(Cl)cc1)NCc1ccncc1`, the cell number change is 15%. Regarding `COc1ccc(C(=O)N2CCN(c3nc4ccccc4o3)CC2)cc1OC`, the cell number change was -38.4%. The concentration at half-maximal activity (AC50) under setting [2] is 7.31 µM [falling, partial curve, poor fit]. Consider `Clc1ccc(Cn2c(-c3cccnc3Cl)nc3ccccc32)cc1`, for which the cell number change stood at 20%. For the same molecule, the AC50 under setting [1] was 29.1 µM [rising, single point]. `O=C(c1cn(-c2ccccc2)nc1-c1ccccc1)n1nnc2ccccc21`: the cell number change is -2.81%. Under setting [1], the half-maximal activity concentration (AC50) is 1.03 µM [falling, full curve, poor fit]. With `S=C(NCCc1ccc(Cl)cc1)NC1CC1`, the cell number change worked out at 13.7%. In addition, the AC50 under setting [1] was 15.8 µM [rising, single point].

Turning to `CC1(C)Cc2c(cnn2-c2ccc(F)cc2)C(NC(=O)CCCN2CCCCC2=O)C1` (stereo unspecified), the cell number change is -1.47%. The AC50 under setting [1] is 29.1 µM [falling, single point]. Regarding `Cc1c(NC(=O)c2ccc(Br)o2)cccc1C(=O)O`, the cell number change was 38.4%. Moreover, under setting [2], the AC50 was 29.1 µM [rising, single point]. Take `CCOc1ccccc1NC(=O)NC1CC2CCCC(C1)N2Cc1nnnn1CCc1ccccc1` (stereo unspecified): the cell number change came to 31.8%. Moreover, the AC50 under setting [2] is 0.259 µM [rising, full curve, poor fit]. Moreover, under setting [1], the AC50 is 0.411 µM [rising, partial curve, poor fit].

As for `COc1ccc(-c2cc(-c3ccc(Cl)cc3)c(C#N)c(SCC(=O)O)n2)cc1`, the AC50 under setting [2] was 0.00517 µM [falling, full curve, poor fit]. Regarding `Cc1ccnc(SCC(=O)c2cccs2)n1`, the cell number change is 34.7%. As to `Cc1cccc(OCCN2C(=O)C(=O)c3cc(C)ccc32)c1`, the cell number change is -56.6%. Moreover, the AC50 under setting [2] is 18.4 µM [falling, partial curve]. For the same molecule, the AC50 under setting [1] is 0.517 µM [falling, single point].

Consider `C/C(CC(=O)Nc1ccc([N+](=O)[O-])cc1)=N/NC(=O)C1CC12CCC2` (stereo unspecified), for which the cell number change was -19.2%. Regarding `CCCOP(=O)(c1ccc(N(C)C)cc1)C(O)c1ccc(N(C)C)cc1` (stereo unspecified), the cell number change is -15.3%. In addition, under setting [1], the AC50 was 29.1 µM [rising, single point].

Source of the values: PubChem BioAssay AID2685 (National Center for Advancing Translational Sciences (NCATS), 2010).
